# Drug screen on melanoma cell lines: apoptosis marker

Drug key:
perifosine, 2 µM: CCCCCCCCCCCCCCCCCCOP(=O)([O-])OC1CC[N+](C)(C)CC1
XAV939, 10 µM: Oc1nc(-c2ccc(C(F)(F)F)cc2)nc2c1CSCC2
lenalidomide, 5 µM: Nc1cccc2c1CN(C1CCC(=O)NC1=O)C2=O (centres unmarked)
PLX4720, 0.4 µM: CCCS(=O)(=O)Nc1ccc(F)c(C(=O)c2c[nH]c3ncc(Cl)cc23)c1F
PF-562271, 0.4 µM: CN(c1ncccc1CNc1nc(Nc2ccc3c(c2)CC(=O)N3)ncc1C(F)(F)F)S(C)(=O)=O
tipifarnib, 0.05 µM: Cn1cncc1[C@@](N)(c1ccc(Cl)cc1)c1ccc2c(c1)c(-c1cccc(Cl)c1)cc(=O)n2C
STA-4783, 0.03 µM: CN(NC(=O)CC(=O)NN(C)C(=S)c1ccccc1)C(=S)c1ccccc1
OSU-03012, 5 µM: NCC(=O)Nc1ccc(-n2nc(C(F)(F)F)cc2-c2ccc3c(ccc4ccccc43)c2)cc1
VX-702, 2 µM: NC(=O)c1ccc(N(C(N)=O)c2c(F)cccc2F)nc1-c1ccc(F)cc1F
nutlin-3, 0.5 µM: COc1ccc(C2=N[C@@H](c3ccc(Cl)cc3)[C@@H](c3ccc(Cl)cc3)N2C(=O)N2CCNC(=O)C2)c(OC(C)C)c1

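Human melanoma cell lines in 1,536-well plates were treated with a pair of drugs for 72 h, then fixed, stained and imaged. The read-out is the fraction of cleaved-PARP-positive nuclei, in % of that fraction in the DMSO control; 200 means twice the control level of this apoptosis marker. Concentrations were fixed for each drug; these are the higher of two levels. These are primary screening values without error estimates. Basal and induced levels differ widely between cell lines.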 Only some of the drugs and lines screened are listed, without regard to their results.

Pair,COLO 792,MeWo,SK-MEL-5,UACC-257,UACC-62,WM451Lu,WM115,SK-MEL-2,IPC-298,WM3526
OSU-03012 + lenalidomide,197,215,352,38.3,151,243,85.3,507,70.3,342
lenalidomide + PF-562271,86.4,60.2,227,50.6,264,204,338,208,91.0,168
PLX4720 + STA-4783,648,784,797,77.3,122,725,4440,22.8,63.9,348
PF-562271 + VX-702,73.4,86.1,153,148,127,154,145,206,116,201
perifosine + PF-562271,87.6,163,134,143,217,106,135,63.4,31.3,76.4
VX-702 + tipifarnib,59.7,127,63.0,114,105,469,60.7,123,153,102
XAV939 + nutlin-3,70.2,55.9,56.3,77.8,238,10.4,58.0,111,34.9,39.6
PF-562271 + OSU-03012,122,71.6,229,44.2,136,138,219,421,80.5,421
PLX4720 + perifosine,84.6,79.9,39.9,86.7,282,141,91.7,199,57.8,185
XAV939 + VX-702,79.2,130,71.5,34.9,228,39.6,127,156,89.9,77.1
XAV939 + STA-4783,631,2170,338,43.1,250,183,2620,143,112,70.1
STA-4783 + OSU-03012,2410,1190,330,125,110,72.5,703,170,108,346
perifosine + nutlin-3,63.8,126,82.1,60.9,185,36.3,38.1,52.1,185,58.6
perifosine + OSU-03012,176,59.2,105,146,160,43.9,66.7,1020,250,430
lenalidomide + VX-702,135,76.5,58.3,107,233,270,114,101,83.7,114
lenalidomide + tipifarnib,242,95.9,40.4,38.8,167,76.9,171,183,128,277
XAV939 + lenalidomide,73.5,103,49.5,45.8,123,198,316,183,33.1,63.0
PLX4720 + nutlin-3,80.3,121,166,111,339,552,159,101,445,241
XAV939 + PLX4720,68.8,42.6,129,105,319,137,379,113,45.6,244
PLX4720 + tipifarnib,120,120,551,44.9,185,172,194,266,73.5,490
XAV939 + PF-562271,101,74.9,200,135,212,335,94.9,50.7,79.8,13.1
STA-4783 + VX-702,1150,1290,182,35.5,177,109,844,74.8,178,162
lenalidomide + perifosine,118,54.4,194,88.6,291,68.3,64.8,90.8,62.2,140
perifosine + tipifarnib,122,52.9,93.2,33.5,111,164,120,470,84.6,69.2
STA-4783 + PF-562271,418,2770,305,75.1,147,185,1990,30.1,177,160
STA-4783 + perifosine,543,636,168,53.5,179,114,2000,19.7,112,57.5

For reference, 3 entries once more:

{"pair": "XAV939 + VX-702", "COLO 792": 79.2, "MeWo": 130, "SK-MEL-5": 71.5, "UACC-257": 34.9, "UACC-62": 228, "WM451Lu": 39.6, "WM115": 127, "SK-MEL-2": 156, "IPC-298": 89.9, "WM3526": 77.1}
{"pair": "PLX4720 + STA-4783", "COLO 792": 648, "MeWo": 784, "SK-MEL-5": 797, "UACC-257": 77.3, "UACC-62": 122, "WM451Lu": 725, "WM115": 4440, "SK-MEL-2": 22.8, "IPC-298": 63.9, "WM3526": 348}
{"pair": "perifosine + OSU-03012", "COLO 792": 176, "MeWo": 59.2, "SK-MEL-5": 105, "UACC-257": 146, "UACC-62": 160, "WM451Lu": 43.9, "WM115": 66.7, "SK-MEL-2": 1020, "IPC-298": 250, "WM3526": 430}

Source: doi:10.1371/journal.pone.0140310, primary screening data, rounded.